Assay results from patent US20230072421A1, “TARGETED RADIOPHARMACEUTICALS FOR THE DIAGNOSIS AND TREATMENT OF PROSTATE CANCER” (Bayer AS, priority 2019, published 2023).
For at least one compound, name, drawing or mass did not settle the structure.

System: VCap, C4-2, 22Rv1 and LnCap cells
Assay: Cell proliferation assay, summary statements over several cell lines
Type: cell-based
Protocol: Inhibition of cell proliferation of Thorium-227 labeled PMSA SMOL ligands was tested different prostate cancer cell lines, namely 22Rv1, VCaP, C4-2 (all from ATCC, Manassas, Va., USA) and LNCaP (DMSZ, Braunschweig). Cells were seeded using the following conditions in 384 well plates (Corning) in 30 μl of growth media at 4000 cells/well for VCaP cells and 1000 cells/well for 22Rv1, C4-2 and LNCaP cells.
Cells were cultivated an incubator at 37° C. and 5% C02 over night. […] In sister plates cell viability at treatment start (d=0) was determined using CellTiter-Glo® assay (CTG, Promega, Madison, Wis., USA), by adding 30 μl per well CTG solution, incubation for 10 min and reading of Luminescence in a PheraStarFSX instrument (BMG Labtech). After a 5-day exposure in the presenced of test compounds, cell viability of treated or untreated control cells was determined again using CellTiter-Glo® assay (Promega, Madison, Wis., USA). […] The DRC software is a Biobook Spreadsheet that was developed by Bayer AG and Bayer Business Services on the IDBS E-Workbook Suite platform (IDBS: ID Business Solutions Ltd., Guildford, UK).

With `Cc1cc(C(=O)NCCN(CCCN(CCNC(=O)c2cc(C)n(CC(=O)O)c(=O)c2O)CCNC(=O)c2cc(C)n(CC(=O)NCc3ccc(C(=O)N[C@@H](Cc4ccc5ccccc5n4)C(=O)NCCCC[C@H](NC(=O)N[C@@H](CCC(=O)O)C(=O)O)C(=O)O)nc3)c(=O)c2O)CCNC(=O)c2cc(C)n(CC(=O)NCc3ccc(C(=O)NC(Cc4ccc5ccccc5n4)C(=O)NCCCC[C@H](NC(=O)N[C@@H](CCC(=O)O)C(=O)O)C(=O)O)nc3)c(=O)c2O)c(O)c(=O)n1CC(=O)O` (stereo partly drawn) [34-C dimer, (3S,10S,14S,3'S,10'S,14'S)-1,1′-(propane-1,3-diylbis{[(2-{[1-(carboxymethyl)-3-hydroxy-6-methyl-2-oxo-1,2-dihydropyridine-4-carbonyl]amino}ethyl)azanediyl]ethane-2,1-diylcarbamoyl(3-hydroxy-6-methyl-2-oxopyridine-4,1(2H)-diyl)(1-oxoethane-2,1-diyl)azanediylmethylenepyridine-5,2-diyl})bis{1,4,12-trioxo-3-[(quinolin-2-yl)methyl]-2,5,11,13-tetraazahexadecane-10,14,16-tricarboxylic acid}] the “antiproliferative activity on VCap, C4-2, 22Rv1 and LnCap cells (in words)” value (227Th-labelled compounds bearing the HOPO chelator Example A) was “high antiproliferative activity” and the “antiproliferative activity on VCap and C4-2 cells (in words)” value (227Th-labelled compounds, in comparison to 227Th-labelled examples 1-C monomer, dimer, trimer and tetramer) was “improved antiproliferative activity”.
